# Assay results from patent US20160175306A1, “COMBINATION OF A IMIDAZOPYRIDAZINE DERIVATIVE AND A MITOTIC AGENT FOR THE TREATMENT OF CANCER” (BAYER PHARMA AKTIENGESELLSCHAFT, priority 2013, published 2016).
# Some of these results come from one statement about several compounds together.
# Tested on: rat hepatocytes
# Experiment: In vitro metabolic stability in rat hepatocytes
# Assay type: in vitro ADME
# Conditions: 1 μM test compound, calculated from half-life
# Procedure: Investigation of In Vitro Metabolic Stability in Rat Hepatocytes (Including Calculation of Hepatic In Vivo Blood Clearance (CL))
# Hepatocytes from Han Wistar rats were isolated via a 2-step perfusion method. After perfusion, the liver was carefully removed from the rat: the liver capsule was opened and the hepatocytes were gently shaken out into a Petri dish with ice-cold WME. The resulting cell suspension was filtered through sterile gaze in 50 ml falcon tubes and centrifuged at 50×g for 3 min at room temperature.
# The cell pellet was resuspended in 30 ml WME and centrifuged through a Percoll® gradient for 2 times at 100×g. The hepatocytes were washed again with Williams' medium E (WME) and resuspended in medium containing 5% FCS. Cell viability was determined by trypan blue exclusion.
# For the metabolic stability assay liver cells were distributed in WME containing 5% FCS to glass vials at a density of 1.0×10^6 vital cells/m. […] Samples were frozen at −20° C. over night, after subsequently centrifuged for 15 minutes at 3000 rpm and the supernatant was analyzed with an Agilent 1200 HPLC-system with LCMS/MS detection.
# The half-life of a test compound was determined from the concentration-time plot. From the half-life the intrinsic clearances were calculated. […] The hepatic in vivo blood clearance (CL) and the maximal oral bioavailability (Fmax) was calculated. […]
structure (smiles),measurement,value
"COc1ccc(Oc2cc(NCCC(F)(F)F)c3ncc(-c4ccc(C(=O)NC5CC5)c(C)c4)n3n2)c(F)c1F [Compound A27, N-cyclopropyl-4-{6-(2,3-difluoro-4-methoxyphenoxy)-8-[(3,3,3-trifluoropropyl)amino]imidazo[1,2-b]pyridazin-3-yl}-2-methylbenzamide]",Fmax (maximal oral bioavailability),≥ 39%
